Laboratory results reported in PMC10618185.

Assays:
[1] = biological target: T1, HA-VPS39 (human (cDNA from HeLa Kyoto cells)) (UniProt Q96JC1); assay: affinity purification with mass spectrometry; WT HeLa cells with single expression of Myc- or HA-tagged bait; IP with anti-Myc or anti-HA antibodies and magnetic beads; eluate resolved by SDS-PAGE, in-gel trypsin digestion, LC-MS/MS (MASCOT, Scaffold 5); high probability threshold
T1 sequence: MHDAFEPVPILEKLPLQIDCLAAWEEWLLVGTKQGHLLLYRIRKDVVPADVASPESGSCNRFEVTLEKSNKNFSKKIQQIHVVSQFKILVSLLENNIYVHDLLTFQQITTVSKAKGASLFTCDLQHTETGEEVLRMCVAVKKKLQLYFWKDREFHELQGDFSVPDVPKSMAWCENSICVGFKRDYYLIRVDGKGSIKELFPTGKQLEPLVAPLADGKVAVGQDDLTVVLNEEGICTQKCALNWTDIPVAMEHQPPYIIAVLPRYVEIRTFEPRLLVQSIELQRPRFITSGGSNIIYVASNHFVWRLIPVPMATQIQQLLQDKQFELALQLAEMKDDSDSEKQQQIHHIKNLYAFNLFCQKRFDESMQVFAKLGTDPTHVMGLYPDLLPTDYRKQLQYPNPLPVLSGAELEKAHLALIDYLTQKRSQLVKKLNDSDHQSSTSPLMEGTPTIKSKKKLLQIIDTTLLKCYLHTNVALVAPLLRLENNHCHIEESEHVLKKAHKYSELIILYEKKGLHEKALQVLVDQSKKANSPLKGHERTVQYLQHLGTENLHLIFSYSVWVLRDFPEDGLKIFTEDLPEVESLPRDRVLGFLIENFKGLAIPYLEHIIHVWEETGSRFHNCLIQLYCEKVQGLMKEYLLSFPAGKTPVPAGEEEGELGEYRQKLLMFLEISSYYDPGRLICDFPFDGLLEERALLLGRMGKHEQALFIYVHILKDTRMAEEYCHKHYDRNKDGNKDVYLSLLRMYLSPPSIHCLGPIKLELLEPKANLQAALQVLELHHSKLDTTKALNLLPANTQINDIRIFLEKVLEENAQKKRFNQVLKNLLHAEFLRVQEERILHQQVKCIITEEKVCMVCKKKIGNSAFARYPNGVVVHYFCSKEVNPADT

[2] = biological target: T2, Myc-VPS8 (human (cDNA from HeLa Kyoto cells)) (UniProt Q8N3P4); assay: as above
T2 sequence: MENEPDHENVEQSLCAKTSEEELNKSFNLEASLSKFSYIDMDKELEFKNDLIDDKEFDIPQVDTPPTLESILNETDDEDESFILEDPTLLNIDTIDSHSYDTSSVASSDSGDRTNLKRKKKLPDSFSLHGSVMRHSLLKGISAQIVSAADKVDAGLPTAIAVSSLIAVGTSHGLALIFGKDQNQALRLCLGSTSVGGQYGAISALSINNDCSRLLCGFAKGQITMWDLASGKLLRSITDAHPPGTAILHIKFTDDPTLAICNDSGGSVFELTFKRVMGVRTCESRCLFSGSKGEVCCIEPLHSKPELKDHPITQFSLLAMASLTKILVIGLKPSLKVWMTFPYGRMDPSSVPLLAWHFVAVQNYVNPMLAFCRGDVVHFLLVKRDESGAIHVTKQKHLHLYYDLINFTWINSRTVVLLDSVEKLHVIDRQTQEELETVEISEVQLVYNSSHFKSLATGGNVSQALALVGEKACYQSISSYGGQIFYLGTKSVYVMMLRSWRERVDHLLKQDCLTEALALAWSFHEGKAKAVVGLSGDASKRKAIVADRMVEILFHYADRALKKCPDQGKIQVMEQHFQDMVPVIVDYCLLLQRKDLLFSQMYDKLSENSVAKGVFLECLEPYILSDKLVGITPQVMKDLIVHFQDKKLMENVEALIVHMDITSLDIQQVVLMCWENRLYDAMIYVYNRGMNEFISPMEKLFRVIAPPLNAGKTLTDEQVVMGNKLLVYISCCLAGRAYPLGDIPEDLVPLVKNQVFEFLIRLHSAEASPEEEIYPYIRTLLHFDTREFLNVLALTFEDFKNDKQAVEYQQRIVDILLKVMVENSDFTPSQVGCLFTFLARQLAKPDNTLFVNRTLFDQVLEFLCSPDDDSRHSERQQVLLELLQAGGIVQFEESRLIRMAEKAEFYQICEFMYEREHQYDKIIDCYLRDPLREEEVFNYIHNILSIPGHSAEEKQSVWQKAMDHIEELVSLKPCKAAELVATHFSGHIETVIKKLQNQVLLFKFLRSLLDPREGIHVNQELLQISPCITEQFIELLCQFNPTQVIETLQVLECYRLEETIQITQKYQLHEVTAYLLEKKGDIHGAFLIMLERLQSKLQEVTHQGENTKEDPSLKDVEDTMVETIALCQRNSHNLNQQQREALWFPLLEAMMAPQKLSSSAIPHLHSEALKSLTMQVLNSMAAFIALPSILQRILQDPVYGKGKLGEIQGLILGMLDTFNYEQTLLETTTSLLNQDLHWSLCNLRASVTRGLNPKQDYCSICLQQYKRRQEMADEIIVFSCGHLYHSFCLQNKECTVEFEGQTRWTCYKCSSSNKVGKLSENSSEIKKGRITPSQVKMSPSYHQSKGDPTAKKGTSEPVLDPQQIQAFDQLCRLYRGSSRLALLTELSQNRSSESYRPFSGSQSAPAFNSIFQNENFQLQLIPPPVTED

B1: endogenous VPS3 (protein, UniProt Q8WUH2 1-860)
chain: MMSIKAFTLVSAVERELLMGDKERVNIECVECCGRDLYVGTNDCFVYHFLLEERPVPAGPATFTATKQLQRHLGFKKPVNELRAASALNRLLVLCDNSISLVNMLNLEPVPSGARIKGAATFALNENPVSGDPFCVEVCIISVKRRTIQMFLVYEDRVQIVKEVSTAEQPLAVAVDGHFLCLALTTQYIIHNYSTGVSQDLFPYCSEERPPIVKRIGRQEFLLAGPGGLGMFATVAGISQRAPVHWSENVIGAAVSFPYVIALDDEFITVHSMLDQQQKQTLPFKEGHILQDFEGRVIVATSKGVYILVPLPLEKQIQDLLASRRVEEALVLAKGARRNIPKEKFQVMYRRILQQAGFIQFAQLQFLEAKELFRSGQLDVRELISLYPFLLPTSSSFTRSHPPLHEYADLNQLTQGDQEKMAKCKRFLMSYLNEVRSTEVANGYKEDIDTALLKLYAEADHDSLLDLLVTENFCLLTDSAAWLEKHKKYFALGLLYHYNNQDAAAVQLWVNIVNGDVQDSTRSDLYEYIVDFLTYCLDEELVWAYADWVLQKSEEVGVQVFTKRPLDEQQKNSFNPDDIINCLKKYPKALVKYLEHLVIDKRLQKEEYHTHLAVLYLEEVLLQRASASGKGAEATETQAKLRRLLQKSDLYRVHFLLERLQGAGLPMESAILHGKLGEHEKALHILVHELQDFAAAEDYCLWCSEGRDPPHRQQLFHTLLAIYLHAGPTAHELAVAAVDLLNRHATEFDAAQVLQMLPDTWSVQLLCPFLMGAMRDSIHARRTMQVALGLARSENLIYTYDKMKLKGSSIQLSDKKLCQICQNPFCEPVFVRYPNGGLVHTHCAASRHTNPSSSSPGTRT
- binding [1]: no binding
- binding [2]: binds

These are yes or no findings as the source states them, for the method shown. In cells and extracts the contact can be indirect. Here binding means that the protein was enriched with, or labelled near, the bait; the list need not be complete. For some assays here: A no says only that the protein was not detected with the bait. Sequences can lack the tags named with a protein.
